# Measurements: the supplement of paper PMC12067093, “Discovery and optimisation of a covalent ligand for TRIM25 and its application to targeted protein ubiquitination” (Chemical Science, 2025)
# The list shows a part of the results.
# Compound: CC1Cc2ccccc2N1C(=O)C1CCCN(C1)C(=O)CCl (mixture of isomers) [TRIM25 ligand 11 (diastereomer mixture)]
# Assay: probe-labelled cysteine peptide fold change vs DMSO (competition) (log2 fold change); higher = less target engagement (more negative = stronger competition)
# Details: THP-1, incubation time: 4 h
# 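Also: competitive chemoproteomic profiling in live THP-1 cells with an iodoacetamide desthiobiotin (IA-DTB) probe, comparing probe-labelled peptide intensities in compound-treated cells against DMSO-treated controls.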
Target,probe-labelled cysteine peptide fold change (10 µM),probe-labelled cysteine peptide fold change (50 µM)
CSNK2B_P67870_109_YQQGDFGYCPR (UniProt P67870),0.0726,-0.018
CTC1_Q2NKJ3_535_NAHNEILEEPHHCPLQK (UniProt Q2NKJ3),-0.00774,-0.0125
CSDE1_O75534_365_CVDRDVR (UniProt O75534),0.392,0.311
CPSF2_Q9P2I0_187_EIHLNGCSLEMLSR (UniProt Q9P2I0),0.161,0.0342
CSTF1_Q05048_310_AHDGAEVCSAIFSK (UniProt Q05048),-0.0154,0.0736
CSTF3_Q12996_536_FMDLYPCSASELK (UniProt Q12996),-0.078,0.035
CTIF_O43310_556_MLCPSESMLTR (UniProt O43310),-0.134,-0.0936
CTAGE5_O15320_579_GPGNPLDHQITNERGESSCDR (UniProt Q96PC5+O15320),-0.0295,-0.158
CRYBB1_P53674_80_RAEFSGECSNLADR (UniProt P53674),-0.0491,-0.0109
CRYBG1_Q9Y4K1_503_GCVLPVSR (UniProt Q9Y4K1),-0.0878,-0.28
CRLF3_Q8IUI8_336_DSIGVCAEK (UniProt Q8IUI8),0.0372,-0.00931
CTNND1_O60716_394_SNAAAYLQHLCYR (UniProt O60716),-0.172,0.00849
CRTAP_O75718_84_DSEAFCHR (UniProt O75718),0.0823,0.257
CPNE2_Q96FN4_388+401_VSHEFAINFNPTNPFCSGVDGIAQAYSACLPHIR (UniProt Q96FN4),0.302,0.0685
CPNE1_Q99829_53_NCSSPEFSK (UniProt Q99829),-0.0922,-0.138
COX19_Q49B96_61_EYLECR (UniProt Q49B96),0.00446,-0.052
CSDE1_O75534_657_FQLCVLGQNAQTMAYNITPLRR (UniProt O75534),-0.297,-0.257

Target,probe-labelled cysteine peptide fold change (10 µM),probe-labelled cysteine peptide fold change (50 µM)
CSDE1_O75534_191_CQGVVCAMK (UniProt O75534),0.029,-0.0446
CORO2A_Q92828_25_ENCYDSVPITR (UniProt Q92828),-0.13,-0.135
CPSF1_Q10570_149_CAAMLVYGTR (UniProt Q10570),0.00921,-0.00678
CORO1C_Q9ULV4_39_VTWDSSFCAVNPR (UniProt Q9ULV4),0.0602,-0.0375
CRIP1_P50238_52_PYCNHPCYAAMFGPK (UniProt P50238),-0.178,-0.259
CTDP1_Q9Y5B0_700_VLQAQECGHLHVVNPDWLWSCLER (UniProt Q9Y5B0),-0.231,0.0221
CRELD2_Q6UXH1_31_KPTPCHR (UniProt Q6UXH1),-0.0101,0.103
CORO1A_P31146_24_ADQCYEDVR (UniProt P31146),-0.0083,-0.0868
CRBN_Q96SW2_234_FHCANLTSWPR (UniProt Q96SW2),0.147,0.121
CORO1A_P31146_192+195_DGGLICTSCR (UniProt P31146),-0.041,-0.0766
CTNNA1_P35221_116_AAAGEFADDPCSSVK (UniProt P35221),0.134,0.0576
CPSF3_Q9UKF6_345_ELFESWCTDK (UniProt Q9UKF6),0.152,0.192
CPM_P14384_341_KHICPYR (UniProt P14384),-0.101,-0.119
CSDE1_O75534_464_EAEDGIIAYDDCGVK (UniProt O75534),-0.118,-0.12
CSTF1_Q05048_402+415_CIVHSPTNPGFMTCSDDFR (UniProt Q05048),-0.0612,-0.16
CS_O75390_211_LPCVAAK (UniProt O75390),0.0113,0.0565
CTAGE5_O15320_131_EATEAQSLEATCEK (UniProt Q96PC5+O15320),-0.0982,0.048
